Test results reported in paper PMC11607329.
Results are given in words; binding and its absence hold for the method and conditions named. In cells and extracts the contact can be indirect. Some entries that bind do so weakly or less than the wild type.

T1: Lipocalin-2 (mouse (endogenous in mouse VSMCs)) (UniProt P11672)
T1 sequence: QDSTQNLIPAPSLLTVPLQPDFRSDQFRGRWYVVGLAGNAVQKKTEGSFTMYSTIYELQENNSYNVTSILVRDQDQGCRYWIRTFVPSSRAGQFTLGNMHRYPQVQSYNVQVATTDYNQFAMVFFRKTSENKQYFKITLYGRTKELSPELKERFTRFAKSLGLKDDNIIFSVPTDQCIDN

T2: nuclear receptor coactivator 4 (mouse (endogenous in mouse VSMCs)) (UniProt Q5U4H9)
T2 sequence: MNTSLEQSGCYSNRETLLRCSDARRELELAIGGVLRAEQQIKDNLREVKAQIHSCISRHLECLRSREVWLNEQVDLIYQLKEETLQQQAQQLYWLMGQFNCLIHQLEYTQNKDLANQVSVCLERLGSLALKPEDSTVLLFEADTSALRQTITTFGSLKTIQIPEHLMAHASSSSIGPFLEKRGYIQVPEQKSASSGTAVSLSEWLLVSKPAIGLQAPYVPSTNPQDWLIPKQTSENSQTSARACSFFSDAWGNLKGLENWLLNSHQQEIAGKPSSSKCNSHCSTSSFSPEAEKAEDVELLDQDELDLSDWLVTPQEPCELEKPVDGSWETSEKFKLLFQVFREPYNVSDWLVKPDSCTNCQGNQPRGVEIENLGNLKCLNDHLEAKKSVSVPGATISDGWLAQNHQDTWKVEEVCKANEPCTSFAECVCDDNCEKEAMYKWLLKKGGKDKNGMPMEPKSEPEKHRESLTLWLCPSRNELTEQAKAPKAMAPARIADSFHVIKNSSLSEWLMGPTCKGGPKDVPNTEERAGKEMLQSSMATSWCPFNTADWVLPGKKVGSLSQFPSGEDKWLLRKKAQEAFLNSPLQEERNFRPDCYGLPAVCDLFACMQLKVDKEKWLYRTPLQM

B1: nuclear receptor coactivator 4 (protein, UniProt Q5U4H9 1-625)
chain: T2 sequence
B2: Lipocalin-2 (protein, UniProt P11672 21-200)
chain: T1 sequence

Assays:
[1] = target: T1, Lipocalin-2 (mouse (endogenous in mouse VSMCs)); experiment: co-IP; VSMCs total cell lysates (IP lysis buffer with 1% PMSF), pre-cleared with protein A/G agarose, incubated overnight at 4 °C with anti-LCN2 or anti-NCOA4 primary antibody or control IgG, collected on protein A/G agarose for 5 h at 4 °C, Western blot
[2] = target: T2, nuclear receptor coactivator 4 (mouse (endogenous in mouse VSMCs)); experiment: as above

| binding [1] | binding [2] | Binder |
| --- | --- | --- |
| binds | – | B1 |
| – | binds | B2 |
